# PubChem BioAssay AID1259308 | NCATS – 2017
# Purpose: 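Genes whose loss raises luciferase production in HEK293 cells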 (primary screen)
# Cell system: human HEK293 embryonic kidney cells stably expressing firefly luciferase (HEK-CMV-Luc2-Hygro)
# Reagent: single siRNA against human genes, 0.8 pmol siRNA per well
# Time to read-out: 72 h
# Read-out: 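Reporter luminescence and viable-cell signal on separate replicate plates, given as percent of non-targeting control and median/MAD z-scores, plus per-cell luciferase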
# Scale: total luciferase, z-score and total luciferase, % of control: higher = more reporter protein produced; luciferase per cell, z-score: higher = more reporter output per viable cell; viable cells, % of control: higher = more viable cells
# Hit rule: 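Active when the median/MAD z-score for overall luciferase is greater than 3; a gene was taken forward for validation with new siRNAs if at least two of its three siRNAs passed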
# Meaning of the calls: active = raised luciferase; inactive = no rise
# The whole screen tested about 59,000 reagents; below is an unselected part. In the full data, about 1,510 (2.6%) got an active call. 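Calls use total luciferase alone and ignore viability, so some active siRNAs may act by altering cell number.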 Reagents against one gene are numbered here. Reagent sequences are not shown.
gene knocked down,reagent,"total luciferase, z-score","total luciferase, % of control","luciferase per cell, z-score","viable cells, % of control",Outcome
PPP1R13L (protein phosphatase 1 regulatory subunit 13 like),1,7.22,225,4.12,85.1,active
PPP1R13L (protein phosphatase 1 regulatory subunit 13 like),2,0.188,85.6,0.84,76.7,inactive
PPP1R13L (protein phosphatase 1 regulatory subunit 13 like),3,1.33,108,1.23,87.8,inactive
FPR1 (formyl peptide receptor 1),1,2.19,125,2.3,76.4,inactive
FPR1 (formyl peptide receptor 1),2,1.52,112,1.41,86.4,inactive
FPR1 (formyl peptide receptor 1),3,-0.111,79.7,-0.0361,89.9,inactive
ATF7IP2 (activating transcription factor 7 interacting protein 2),1,-0.139,79.1,-0.605,104,inactive
ATF7IP2 (activating transcription factor 7 interacting protein 2),2,2.56,133,2.19,83.4,inactive
ATF7IP2 (activating transcription factor 7 interacting protein 2),3,2.29,127,1.9,86.3,inactive
TM6SF2 (transmembrane 6 superfamily member 2),1,-0.38,74.3,0.79,67.5,inactive
TM6SF2 (transmembrane 6 superfamily member 2),2,0.938,101,1.36,78.5,inactive
TM6SF2 (transmembrane 6 superfamily member 2),3,-0.486,72.2,-0.585,94.2,inactive
PAXX (PAXX non-homologous end joining factor),1,0.162,85.1,0.334,87.1,inactive
PAXX (PAXX non-homologous end joining factor),2,-0.283,76.3,0.222,80.4,inactive
PAXX (PAXX non-homologous end joining factor),3,-1.87,44.6,-2.18,88.5,inactive
PHB2 (prohibitin 2),1,0.359,89,-0.255,106,inactive
PHB2 (prohibitin 2),2,-0.00167,81.9,0.15,87.9,inactive
PHB2 (prohibitin 2),3,-1.62,49.7,-1.12,74.7,inactive
RITA1 (RBPJ interacting and tubulin associated 1),1,-0.824,65.5,-0.268,78.5,inactive
RITA1 (RBPJ interacting and tubulin associated 1),2,-0.637,69.2,-0.145,80.4,inactive
RITA1 (RBPJ interacting and tubulin associated 1),3,0.174,85.4,-0.156,99.4,inactive
SAMD12 (sterile alpha motif domain containing 12),1,-0.193,78.1,-0.286,94,inactive
SAMD12 (sterile alpha motif domain containing 12),2,-1.33,55.4,-0.812,76.7,inactive
SAMD12 (sterile alpha motif domain containing 12),3,2.87,139,1.89,94.5,inactive

2 neighbouring entries from above, for reference:
gene knocked down,reagent,"total luciferase, z-score","total luciferase, % of control","luciferase per cell, z-score","viable cells, % of control",Outcome
TM6SF2 (transmembrane 6 superfamily member 2),2,0.938,101,1.36,78.5,inactive
TM6SF2 (transmembrane 6 superfamily member 2),3,-0.486,72.2,-0.585,94.2,inactive

Additional entries follow.
gene knocked down,reagent,"total luciferase, z-score","total luciferase, % of control","luciferase per cell, z-score","viable cells, % of control",Outcome
HOXA11 (homeobox A11),1,-0.423,73.5,-0.614,96.5,inactive
HOXA11 (homeobox A11),2,-0.752,66.9,-1.06,98.9,inactive
HOXA11 (homeobox A11),3,-0.326,75.4,-0.698,101,inactive
ARPC1B (actin related protein 2/3 complex subunit 1B),1,0.225,86.4,0.158,92.6,inactive
ARPC1B (actin related protein 2/3 complex subunit 1B),2,1.89,120,1.41,92.2,inactive
ARPC1B (actin related protein 2/3 complex subunit 1B),3,-1.11,59.8,-0.664,79.6,inactive
IRF2BP1 (interferon regulatory factor 2 binding protein 1),1,-0.316,75.6,-0.328,92.1,inactive
IRF2BP1 (interferon regulatory factor 2 binding protein 1),2,-0.781,66.4,-1.03,97.2,inactive
IRF2BP1 (interferon regulatory factor 2 binding protein 1),3,0.221,86.3,0.762,78.9,inactive
SLC27A4,1,1.02,102,0.89,90.3,inactive
SLC27A4,2,-0.188,78.1,-0.442,98.1,inactive
SLC27A4,3,-0.343,75.1,-0.235,89.2,inactive
ATP12A (ATPase H+/K+ transporting non-gastric alpha2 subunit),1,1.08,103,0.407,104,inactive
ATP12A (ATPase H+/K+ transporting non-gastric alpha2 subunit),2,0.0419,82.7,-0.116,95.3,inactive
ATP12A (ATPase H+/K+ transporting non-gastric alpha2 subunit),3,0.0311,82.5,-0.493,105,inactive
